Results are given in words; binding and its absence hold for the method and conditions named. In cells and extracts the contact can be indirect. Some binding calls cover weakened binding; strength is not graded here. Each block holds one substance with its values, some of them ahead of it.
Legend:
[1] = target: HA-tagged human KLF5 (HA-hKLF5) (human) (UniProt Q13887); test: co-IP; HEK293T cells transfected with HA-hKLF5, rIL-22 (100 ng/mL, 1 hour); Active Motif Nuclear Complex Co-IP kit; precipitation with mouse anti-HA antibody, Western blot for p-STAT3
[2] = target: phosphorylated STAT3 (p-STAT3), endogenous in C2BBE^Ctrl cells (human (endogenous in Caco-2BBE)) (UniProt P40763); test: co-IP; endogenous proteins in C2BBE^Ctrl cells after rIL-22 (100 ng/mL, 1 hour); Active Motif Nuclear Complex Co-IP kit; precipitation with p-STAT3 antibody or rabbit anti-KLF5 antibody, Western blot
[3] = target: Krüppel-like factor 5 (KLF5), endogenous in C2BBE^Ctrl cells (human (endogenous in Caco-2BBE)) (UniProt Q13887); test: as above

By UniProt entry, the sequences of proteins in these tests, tags left out.
UniProt Q13887: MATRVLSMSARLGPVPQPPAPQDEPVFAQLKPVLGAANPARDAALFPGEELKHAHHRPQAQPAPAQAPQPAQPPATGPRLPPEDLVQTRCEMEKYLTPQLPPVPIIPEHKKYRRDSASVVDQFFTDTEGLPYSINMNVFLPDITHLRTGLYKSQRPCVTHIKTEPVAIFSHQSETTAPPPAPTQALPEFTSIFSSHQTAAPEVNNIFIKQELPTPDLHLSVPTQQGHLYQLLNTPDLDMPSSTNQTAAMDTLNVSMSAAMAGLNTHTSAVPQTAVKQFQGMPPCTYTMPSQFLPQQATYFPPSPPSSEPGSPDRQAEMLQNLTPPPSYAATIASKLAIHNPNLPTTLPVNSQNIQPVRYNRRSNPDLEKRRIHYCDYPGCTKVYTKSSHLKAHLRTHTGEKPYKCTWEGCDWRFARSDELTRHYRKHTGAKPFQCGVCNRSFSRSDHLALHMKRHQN
UniProt P40763: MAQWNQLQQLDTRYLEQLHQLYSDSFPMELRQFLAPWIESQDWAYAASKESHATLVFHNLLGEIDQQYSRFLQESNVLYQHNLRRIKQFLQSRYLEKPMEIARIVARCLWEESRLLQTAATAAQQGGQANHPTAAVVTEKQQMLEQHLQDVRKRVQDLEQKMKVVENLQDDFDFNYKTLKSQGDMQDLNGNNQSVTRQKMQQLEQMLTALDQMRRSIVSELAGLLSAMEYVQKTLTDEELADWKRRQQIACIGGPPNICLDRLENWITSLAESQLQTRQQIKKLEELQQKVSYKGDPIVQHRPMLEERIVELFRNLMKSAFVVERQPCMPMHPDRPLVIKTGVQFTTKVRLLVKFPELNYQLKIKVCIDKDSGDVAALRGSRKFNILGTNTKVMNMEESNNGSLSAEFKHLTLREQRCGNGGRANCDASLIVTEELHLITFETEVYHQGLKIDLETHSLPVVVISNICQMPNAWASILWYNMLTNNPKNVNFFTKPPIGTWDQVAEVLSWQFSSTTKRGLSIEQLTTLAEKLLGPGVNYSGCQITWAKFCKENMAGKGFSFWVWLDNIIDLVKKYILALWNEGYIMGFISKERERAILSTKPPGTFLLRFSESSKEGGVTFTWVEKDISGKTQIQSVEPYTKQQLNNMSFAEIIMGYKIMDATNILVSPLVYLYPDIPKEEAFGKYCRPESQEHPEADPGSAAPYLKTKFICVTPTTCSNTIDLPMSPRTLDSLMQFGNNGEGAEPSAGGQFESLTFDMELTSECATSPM

binding [1]: binds
Substance: phosphorylated STAT3 (p-STAT3), endogenous in HEK293T cells (from UniProt P40763 1-770)

binding [2]: binds
Substance: Krüppel-like factor 5 (KLF5), endogenous in C2BBE^Ctrl cells (from UniProt Q13887 1-457)

binding [3]: binds
Substance: phosphorylated STAT3 (p-STAT3), endogenous in C2BBE^Ctrl cells (from UniProt P40763 1-770)
